{"source": "patent US7795222B2", "about": "(Santen Pharmaceutical Co., Ltd., priority 2001, dated 2010)", "assay": "general procedure: Boc solid-phase peptide synthesis; 4-(oxymethyl)phenylace[...] resin (truncated in excerpt)", "conditions": "whole synthesis, 220 nm, TFA salt", "note": "Where a sequence shows no end group, the ends are not given.", "data": [{"sequence": "GSSSRRAP (Human)", "values": [{"measurement": "final HPLC purity", "result": 98.6, "unit": "%"}]}]}
